Assay results from paper PMC11736007.
No constants are given. Whether binding was seen depends on the method and setting. In cells and extracts the contact can be indirect. Some results given as binding are weak or reduced against the parent protein; the word gives no strength.

Amino acid sequences for entries named in this document (tags omitted).
UniProt Q96D31: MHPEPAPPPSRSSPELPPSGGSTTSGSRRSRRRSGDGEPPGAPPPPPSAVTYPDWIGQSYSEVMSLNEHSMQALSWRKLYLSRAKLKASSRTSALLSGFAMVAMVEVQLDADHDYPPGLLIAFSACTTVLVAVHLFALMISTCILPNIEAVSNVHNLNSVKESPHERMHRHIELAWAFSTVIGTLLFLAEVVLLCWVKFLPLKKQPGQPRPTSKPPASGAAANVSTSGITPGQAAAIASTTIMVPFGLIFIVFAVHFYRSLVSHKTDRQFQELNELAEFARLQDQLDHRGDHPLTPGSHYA

Key:
Orai1α-eGFP [1] = target: Orai1α-eGFP (UniProt Q96D31); assay: co-IP; Orai1-KO MCF7 cells co-transfected with an Orai1 variant and mCherry-SPCA2; lysis in 1% IGEPAL CA-630 buffer pH 8; immunoprecipitation with anti-Orai1 antibody and protein A-agarose at 4 °C overnight; Western blot with anti-mCherry; signal normalised to input and to immunoprecipitated Orai1
Orai1α-eGFP [2] = target: Orai1α-eGFP (UniProt Q96D31); assay: FRET or BRET; acceptor photobleaching FRET in living Orai1-KO MCF7 cells; eGFP donor on Orai1, mCherry acceptor on SPCA2; nine ROIs a cell (cytosol, Golgi, plasma membrane); confocal microscope, Hepes-buffered saline

B1: mCherry-SPCA2 (protein, UniProt O75185 1-946)
chain: MVEGRVSEFLKKLGFSGGGRQYQALEKDEEEALIDEQSELKAIEKEKKVTALPPKEACKCQKEDLARAFCVDLHTGLSEFSVTQRRLAHGWNEFVADNSEPVWKKYLDQFKNPLILLLLGSALVSVLTKEYEDAVSIATAVLVVVTVAFIQEYRSEKSLEELTKLVPPECNCLREGKLQHLLARELVPGDVVSLSIGDRIPADIRLTEVTDLLVDESSFTGEAEPCSKTDSPLTGGGDLTTLSNIVFMGTLVQYGRGQGVVIGTGESSQFGEVFKMMQAEETPKTPLQKSMDRLGKQLTLFSFGIIGLIMLIGWSQGKQLLSMFTIGVSLAVAAIPEGLPIVVMVTLVLGVLRMAKKRVIVKKLPIVETLGCCSVLCSDKTGTLTANEMTVTQLVTSDGLRAEVSGVGYDGQGTVCLLPSKEVIKEFSNVSVGKLVEAGCVANNAVIRKNAVMGQPTEGALMALAMKMDLSDIKNSYIRKKEIPFSSEQKWMAVKCSLKTEDQEDIYFMKGALEEVIRYCTMYNNGGIPLPLTPQQRSFCLQEEKRMGSLGLRVLALASGPELGRLTFLGLVGIIDPPRVGVKEAVQVLSESGVSVKMITGDALETALAIGRNIGLCNGKLQAMSGEEVDSVEKGELADRVGKVSVFFRTSPKHKLKIIKALQESGAIVAMTGDGVNDAVALKSADIGIAMGQTGTDVSKEAANMILVDDDFSAIMNAVEEGKGIFYNIKNFVRFQLSTSISALSLITLSTVFNLPSPLNAMQILWINIIMDGPPAQSLGVEPVDKDAFRQPPRSVRDTILSRALILKILMSAAIIISGTLFIFWKEMPEDRASTPRTTTMTFTCFVFFDLFNALTCRSQTKLIFEIGFLRNHMFLYSVLGSILGQLAVIYIPPLQRVFQTENLGALDLLFLTGLASSVFILSELLKLCEKYCCSPKRVQMHPEDV
**Q.** How did the binding (Orai1α-eGFP [1]) turn out when B1 was run?
**A.** binds

**Q.** And the binding (Orai1α-eGFP [2])?
**A.** binds
